Measured values as given in paper doi:10.1101/2023.07.23.23292673.
These are yes or no findings as the source states them, for the method shown. In cells and extracts the contact can be indirect. Some entries that bind do so weakly or less than the wild type.

Chains of the proteins cited; added tags and fusions are not shown. Residues count along the entry.
UniProt P35968, residues 20-1356: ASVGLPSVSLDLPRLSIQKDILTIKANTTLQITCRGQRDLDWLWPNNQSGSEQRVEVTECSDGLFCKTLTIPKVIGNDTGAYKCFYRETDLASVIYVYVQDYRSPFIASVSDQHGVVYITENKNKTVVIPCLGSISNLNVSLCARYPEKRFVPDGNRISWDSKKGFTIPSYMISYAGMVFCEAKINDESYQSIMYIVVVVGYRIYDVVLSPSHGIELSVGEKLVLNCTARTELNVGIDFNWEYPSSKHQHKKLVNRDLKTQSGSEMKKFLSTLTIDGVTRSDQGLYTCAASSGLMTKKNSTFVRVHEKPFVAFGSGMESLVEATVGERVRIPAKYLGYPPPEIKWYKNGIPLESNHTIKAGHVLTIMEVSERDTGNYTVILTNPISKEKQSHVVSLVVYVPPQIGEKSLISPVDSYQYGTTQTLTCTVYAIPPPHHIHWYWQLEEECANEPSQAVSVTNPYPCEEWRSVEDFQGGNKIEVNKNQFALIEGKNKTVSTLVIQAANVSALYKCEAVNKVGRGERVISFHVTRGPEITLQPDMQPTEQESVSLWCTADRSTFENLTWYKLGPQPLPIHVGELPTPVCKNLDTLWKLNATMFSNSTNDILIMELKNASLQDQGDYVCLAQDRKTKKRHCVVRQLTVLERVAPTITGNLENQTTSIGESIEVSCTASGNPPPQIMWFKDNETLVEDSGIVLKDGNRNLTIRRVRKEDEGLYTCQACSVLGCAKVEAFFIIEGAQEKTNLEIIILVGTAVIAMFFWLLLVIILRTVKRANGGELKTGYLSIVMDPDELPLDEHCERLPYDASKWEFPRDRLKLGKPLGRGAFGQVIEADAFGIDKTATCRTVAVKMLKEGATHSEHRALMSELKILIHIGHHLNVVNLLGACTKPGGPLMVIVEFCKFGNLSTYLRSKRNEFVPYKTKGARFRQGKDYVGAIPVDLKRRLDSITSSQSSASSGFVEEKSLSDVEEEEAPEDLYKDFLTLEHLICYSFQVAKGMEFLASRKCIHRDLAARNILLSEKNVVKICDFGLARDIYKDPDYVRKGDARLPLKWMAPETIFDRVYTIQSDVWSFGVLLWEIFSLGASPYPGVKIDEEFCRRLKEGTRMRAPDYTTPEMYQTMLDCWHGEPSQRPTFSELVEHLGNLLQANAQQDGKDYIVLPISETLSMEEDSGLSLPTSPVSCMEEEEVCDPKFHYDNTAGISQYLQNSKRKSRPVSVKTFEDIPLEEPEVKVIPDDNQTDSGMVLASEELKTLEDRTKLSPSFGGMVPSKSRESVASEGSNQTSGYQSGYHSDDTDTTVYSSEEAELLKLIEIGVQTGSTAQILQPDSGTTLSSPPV
UniProt P30559: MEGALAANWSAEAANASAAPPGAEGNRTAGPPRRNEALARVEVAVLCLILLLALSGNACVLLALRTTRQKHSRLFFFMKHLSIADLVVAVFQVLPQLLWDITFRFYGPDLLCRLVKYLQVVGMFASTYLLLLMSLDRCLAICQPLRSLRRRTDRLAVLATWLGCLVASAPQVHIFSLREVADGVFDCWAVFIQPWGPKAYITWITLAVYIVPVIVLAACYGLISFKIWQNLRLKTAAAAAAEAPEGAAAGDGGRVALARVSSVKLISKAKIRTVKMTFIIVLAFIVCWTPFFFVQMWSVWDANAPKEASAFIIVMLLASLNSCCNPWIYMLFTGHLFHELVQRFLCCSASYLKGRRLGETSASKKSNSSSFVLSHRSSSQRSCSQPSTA
UniProt P37288: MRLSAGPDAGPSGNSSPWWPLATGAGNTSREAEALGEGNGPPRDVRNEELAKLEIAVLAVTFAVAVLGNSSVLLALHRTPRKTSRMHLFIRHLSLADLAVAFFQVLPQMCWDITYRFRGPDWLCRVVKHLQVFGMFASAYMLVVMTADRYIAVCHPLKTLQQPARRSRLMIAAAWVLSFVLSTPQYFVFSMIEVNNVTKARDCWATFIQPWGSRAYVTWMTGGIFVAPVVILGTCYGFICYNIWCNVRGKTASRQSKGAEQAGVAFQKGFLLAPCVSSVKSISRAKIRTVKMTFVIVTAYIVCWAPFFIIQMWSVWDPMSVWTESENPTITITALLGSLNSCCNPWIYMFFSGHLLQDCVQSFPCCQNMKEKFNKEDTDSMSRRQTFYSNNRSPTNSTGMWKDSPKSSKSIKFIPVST

T1: PICALM (Phosphatidylinositol-binding clathrin assembly protein) (human (endogenous in placental chorionic villi)) (UniProt Q13492)
T1 sequence: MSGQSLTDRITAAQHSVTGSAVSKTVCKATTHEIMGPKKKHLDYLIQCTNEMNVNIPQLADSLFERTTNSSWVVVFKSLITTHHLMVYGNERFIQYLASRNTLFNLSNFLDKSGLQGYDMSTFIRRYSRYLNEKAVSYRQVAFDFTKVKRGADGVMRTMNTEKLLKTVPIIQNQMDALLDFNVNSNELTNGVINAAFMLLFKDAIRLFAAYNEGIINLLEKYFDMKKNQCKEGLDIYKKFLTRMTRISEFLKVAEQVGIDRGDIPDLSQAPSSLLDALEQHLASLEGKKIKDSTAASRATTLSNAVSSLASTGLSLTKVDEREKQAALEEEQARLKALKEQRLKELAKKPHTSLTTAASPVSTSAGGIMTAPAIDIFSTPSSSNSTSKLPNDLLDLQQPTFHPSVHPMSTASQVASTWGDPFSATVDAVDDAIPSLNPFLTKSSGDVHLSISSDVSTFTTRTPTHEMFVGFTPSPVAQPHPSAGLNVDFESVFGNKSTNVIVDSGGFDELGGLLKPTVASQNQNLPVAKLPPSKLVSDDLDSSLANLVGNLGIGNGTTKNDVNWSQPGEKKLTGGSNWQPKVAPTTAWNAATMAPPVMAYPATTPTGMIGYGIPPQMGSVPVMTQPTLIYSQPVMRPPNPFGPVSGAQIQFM

T2: MDMX (Double minute 4 protein) (human (endogenous in placental chorionic villi)) (UniProt O15151)
T2 sequence: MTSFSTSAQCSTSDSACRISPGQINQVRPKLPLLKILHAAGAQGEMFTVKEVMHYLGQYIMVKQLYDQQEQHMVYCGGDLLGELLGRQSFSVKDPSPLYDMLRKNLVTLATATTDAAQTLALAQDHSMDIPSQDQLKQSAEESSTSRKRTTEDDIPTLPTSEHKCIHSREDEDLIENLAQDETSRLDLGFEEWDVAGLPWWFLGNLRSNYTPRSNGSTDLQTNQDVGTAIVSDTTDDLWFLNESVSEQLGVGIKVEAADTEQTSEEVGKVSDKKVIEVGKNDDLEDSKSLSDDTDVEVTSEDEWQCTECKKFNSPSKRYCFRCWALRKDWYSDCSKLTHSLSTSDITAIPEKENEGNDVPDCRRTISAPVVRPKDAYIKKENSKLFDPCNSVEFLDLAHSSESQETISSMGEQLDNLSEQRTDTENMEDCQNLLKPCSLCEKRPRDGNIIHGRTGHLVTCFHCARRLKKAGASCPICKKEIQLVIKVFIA

B1: MDMX (Double minute 4 protein) (protein, UniProt O15151 1-490)
chain: MTSFSTSAQCSTSDSACRISPGQINQVRPKLPLLKILHAAGAQGEMFTVKEVMHYLGQYIMVKQLYDQQEQHMVYCGGDLLGELLGRQSFSVKDPSPLYDMLRKNLVTLATATTDAAQTLALAQDHSMDIPSQDQLKQSAEESSTSRKRTTEDDIPTLPTSEHKCIHSREDEDLIENLAQDETSRLDLGFEEWDVAGLPWWFLGNLRSNYTPRSNGSTDLQTNQDVGTAIVSDTTDDLWFLNESVSEQLGVGIKVEAADTEQTSEEVGKVSDKKVIEVGKNDDLEDSKSLSDDTDVEVTSEDEWQCTECKKFNSPSKRYCFRCWALRKDWYSDCSKLTHSLSTSDITAIPEKENEGNDVPDCRRTISAPVVRPKDAYIKKENSKLFDPCNSVEFLDLAHSSESQETISSMGEQLDNLSEQRTDTENMEDCQNLLKPCSLCEKRPRDGNIIHGRTGHLVTCFHCARRLKKAGASCPICKKEIQLVIKVFIA

What was measured:
Test in all cases: co-IP
[1] = target: T1, PICALM (Phosphatidylinositol-binding clathrin assembly protein) (human (endogenous in placental chorionic villi))
[2] = target: VEGFR2 (human (endogenous in placental chorionic villi)) (UniProt P35968)
[3] = target: T2, MDMX (Double minute 4 protein) (human (endogenous in placental chorionic villi))

| Molecule | binding [1] | binding [2] | binding [3] |
| --- | --- | --- | --- |
| oxytocin receptor (OT-R) (from UniProt P30559 1-389) | binds | no binding | binds |
| vasopressin V1aR receptor (from UniProt P37288 1-418) | binds | no binding | binds |
| B1 |  | binds |  |
